This data set can be described thus: general procedure: Fmoc solid-phase peptide synthesis; Fmoc-ramage-resin (loading approx. 0.5 mmol/g) for free amides; 2-chloro-trityl-resin (approx. 0.5 mmol/g) for substitut; TBTU/DIPEA. Particulars: whole synthesis, 2TFA; for isolated yield: scale of the general procedure approx. 2.5 g Fmoc-ramage-resin, approx. 2 g 2-chloro-trityl.

In the case of “Bz-Gly-His-D-Phe-Arg-Trp-N(Propyl)2 *2TFA”, the isolated mass amounted to 196 mg and the isolated yield result is given as “(36%)”.
Taken in the same sequence, the figures for “Bz-Gly-D-His-D-Phe-Arg-Trp-N(Propyl)2 *2TFA” were 113 mg and “(10%)”.
Taken in the same sequence, the figures for “Bz-Gly-His-D-Phe-Arg-D-2-NaphAla-NH2 *2TFA” were 351 mg and “(32%)”.
Taken in the same sequence, the figures for Bz-Gly-His-D-Phe-Arg-Trp-NH2 *2TFA were 196 mg and “(19%)”.
For Bz-Gly-His-D-Phe-Arg-Tryptamide *2TFA, the isolated mass is recorded as 40 mg and the isolated yield result is reported as “(4%)”.
Taken in the same sequence, the figures for “Bz-Gly-His-D-Phe-Arg-(N-IndEt)Gly-NH2 *2TFA” were 135 mg and “(13%)”.
Regarding Bz-Gly-His-D-Phe-Arg-Trp-NHOctyl *2TFA, the isolated mass amounted to 278 mg and the isolated yield result was “(28%)”.
Taken in the same sequence, the figures for “Bz-Gly-His-D-Phe-Arg-D-Trp-N(Propyl)2 *2TFA” were 131 mg and “(12%)”.
In the case of Bz-Gly-His-D-Phe-Dab-Trp-NH2 *2TFA, the isolated mass came out at 170 mg and the isolated yield entry was “(14%)”.
Taken in the same sequence, the figures for Bz-Gly-His-D-Phe-Arg-D-Phe-NH2 *2TFA were 218 mg and “(22%)”.
“Bz-Gly-His-D-Phe-D-Arg-Trp-N(Propyl)2 *2TFA”: the isolated mass was determined as 214 mg and the isolated yield entry is given as “(18%)”.
Taken in the same sequence, the figures for “Bz-Gly-His-D-Phe-Arg-L-2-NaphAla-NH2 *2TFA” were 413 mg and “(39%)”.
Taken in the same sequence, the figures for Bz-Gly-His-Phe-Arg-Trp-N(Propyl)2 *2TFA were 176 mg and “(15%)”.

The values above are taken from patent US11591367B2 (DSM IP ASSETS B.V., priority 2016, dated 2023).
